Assay results from PubChem BioAssay AID493014 (National Center for Advancing Translational Sciences (NCATS), 2011).
The list shows a part of the results. Further columns of the screen follow, without active or inactive calls. Compounds called inactive in the main read-out are mostly missing here. Potencies come from curve fits of mixed quality, noted in brackets.

Test: qHTS Assay to Find Inhibitors of Chronic Active B-Cell Receptor Signaling
Details: ABC-DLBCL IkBa-CBG/CBR reporter, luminescence ratio (green luciferase fused to IkBa over red control in TMD8 lymphoma cells), 4 h
How it was run: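 Doxycycline induced both beetle luciferases in TMD8 lymphoma cells; IKK-driven degradation limits the IkappaBalpha-fused green signal, while red luminescence normalises for cell number and nonspecific effects. Compounds tested up to 46 uM, 4 hrs.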

[1] = measured here: CBR red luminescence, cell number

COc1cc(/C=N/Nc2nc3ccccc3s2)ccc1OC(=O)c1ccccc1F
AC50 [1]: 10.3 µM [rising, partial curve, poor fit]

Cc1ccc(S(=O)(=O)Nc2nc(C)cc(NN)n2)cc1
AC50 [1]: 35.5 µM [falling, single point]

COc1ccc2c(c1)CC(C)C/C2=N\NC(=O)c1ccco1 (stereo unspecified)
AC50 [1]: 35.5 µM [falling, single point]

CCOC(=O)c1cnc(-c2cccc(OC)c2)[nH]c1=O
AC50 [1]: 29.1 µM [falling, single point]

CCn1cnc2cc(NC(=O)c3cccs3)ccc21
AC50 [1]: 10 µM [falling, partial curve]

c1ccc(NCc2nc(-c3ccccc3)no2)cc1
AC50 [1]: 16.4 µM [falling, single point]

COCCNc1oc(-c2ccc(F)cc2)nc1C#N
AC50 [1]: 22.4 µM [rising, single point]

CC1CCN(c2ccc(-c3cccc(NC(=O)C(F)(F)F)c3)nn2)CC1
AC50 [1]: 2.24 µM [falling, full curve]

COC(=O)[C@@H](NC(=O)/C=C/c1ccc(OC)cc1)C(C)C
AC50 [1]: 1.12 µM [falling, full curve, poor fit]

O=C(N/N=C/C(Cl)=C/c1ccc([N+](=O)[O-])cc1)C(=O)Nc1ccc(C(=O)O)cc1
AC50 [1]: 0.501 µM [falling, full curve, poor fit]

O=C(Nc1ccccc1Br)c1ccc(N2CCCC2=O)cc1
AC50 [1]: 29.1 µM [falling, single point]

COc1ccc2oc(C(=O)OCC(=O)N(C)C3CCS(=O)(=O)C3)c(C)c2c1 (stereo unspecified)
AC50 [1]: 11.6 µM [falling, partial curve]

O=C(c1ccco1)N1N=C(c2ccc3nccnc3c2)CC1c1ccccc1 (stereo unspecified)
AC50 [1]: 0.501 µM [rising, partial curve, poor fit]

Cc1cc(SCC(=O)c2ccc(O)c(O)c2)nc2ccccc12
AC50 [1]: 35.5 µM [falling, single point]

Cc1nonc1NC(=O)CSc1nc2ccccc2cc1C#N
AC50 [1]: 3.55 µM [falling, full curve]

CCOc1ccc(NC(=O)C2CC(=O)OC2c2ccccc2)cc1 (stereo unspecified)
AC50 [1]: 35.5 µM [rising, single point]

Cc1ccsc1/C=N/NC(=O)c1ccc2c(c1)OCCO2
AC50 [1]: 7.94 µM [falling, partial curve]

CCN1CCCC1CNC(=O)C1CCN(Cc2nc(-c3cccc(Br)c3)oc2C)CC1 (stereo unspecified)
AC50 [1]: 15.8 µM [falling, single point]

CC(C)N1C(=O)/C(=C\c2nc3ccccc3c(=O)n2-c2ccccc2)c2ccccc21
AC50 [1]: 0.13 µM [rising, full curve]

CCOc1cc(N2CCOCC2)c(OCC)cc1NC(=O)C1=COCCO1
AC50 [1]: 11.6 µM [falling, single point]

Cc1nc2ccc(NC(=O)C3COc4ccccc4O3)cc2s1 (stereo unspecified)
AC50 [1]: 3.16 µM [rising, partial curve, poor fit]

COc1ccc(N2CCN(C(=O)CC34CC5CC(CC(C5)C3)C4)CC2)c([N+](=O)[O-])c1
AC50 [1]: 20.6 µM [rising, partial curve, poor fit]

COc1cc(/C=N/n2c(-c3ccccc3)n[nH]c2=S)ccc1O
AC50 [1]: 0.708 µM [falling, full curve, poor fit]

CN(C(=O)COc1ccc(Br)cc1Cl)C1CCCCC1
AC50 [1]: 0.562 µM [rising, full curve]

Cc1cc(C(=O)Nc2ccc(C)c(C)c2)n(-c2ccccc2)n1
AC50 [1]: 10 µM [falling, single point]

CCCC(=O)N1CCN(c2ccc(NC(=O)c3ccccc3)cc2)CC1
AC50 [1]: 2.51 µM [rising, partial curve, poor fit]

CC12CCC(C(=O)N(NC(=O)c3ccc(O)cc3)C1=O)C2(C)C (stereo unspecified)
AC50 [1]: 14.1 µM [falling, partial curve, poor fit]

CCc1nn(CC(=O)NCc2cccnc2)c(=O)c2cc3occc3n12
AC50 [1]: 10 µM [rising, partial curve, poor fit]

COc1cc(C(=S)N2CCCCC2)ccc1OCC(=O)Nc1ccc(F)cc1
AC50 [1]: 5.62 µM [falling, partial curve]

N#Cc1ccc(NC(=S)Nc2ccccc2)cc1
AC50 [1]: 29.1 µM [rising, single point]

O=C(Nc1cccc(Cl)c1)c1ccc(F)c(S(=O)(=O)NCc2ccc3c(c2)OCO3)c1
AC50 [1]: 29.1 µM [falling, single point]

O=C(NCCc1cccs1)c1ccc(Cl)cc1
AC50 [1]: 11.2 µM [falling, partial curve, poor fit]

CC(C)CCc1noc(CN2CCC(C(=O)N3CCOCC3)CC2)n1
AC50 [1]: 35.5 µM [rising, single point]

CCCCN(C(=S)Nc1cccc(SC)c1)C1CCN(C(C)=O)CC1
AC50 [1]: 6.31 µM [rising, partial curve]

O=c1oc(CCO)cc2ccc(-c3ccc4[nH]ccc4c3)cc12
AC50 [1]: 20.6 µM [falling, single point]

COc1ccc2c(c1[N+](=O)[O-])CCC/C2=N/OC(=O)c1ccccc1SC
AC50 [1]: 10 µM [rising, partial curve]

CN(Cc1ccccc1)C(=O)CCCn1c(=O)[nH]c2cc(Cl)ccc2c1=O
AC50 [1]: 5.17 µM [falling, partial curve, poor fit]

COc1cc(OC)cc(C(=O)NCC(=O)OC(C)C(=O)NC(C)C2CC3CCC2C3)c1 (stereo unspecified)
AC50 [1]: 6.51 µM [rising, single point]

CNC(=O)NC(=O)CSc1nnc(C(F)(F)F)n1C
AC50 [1]: 0.0259 µM [falling, full curve, poor fit]

COc1ccc(OC)c(S(=O)(=O)N2CCN(C34CC5CC(CC(C5)C3)C4)CC2)c1
AC50 [1]: 28.2 µM [rising, partial curve, poor fit]

Fc1ccccc1CSc1nc2ncccc2[nH]1
AC50 [1]: 6.51 µM [falling, single point]

Cn1c(CNC(=O)C(Cc2ccccc2)NC(=O)c2ccccc2F)cc(=O)n(C)c1=O (stereo unspecified)
AC50 [1]: 7.94 µM [rising, partial curve, poor fit]

CCCc1nnc(NC(=O)CSc2nnc(-c3ccco3)n2C)s1
AC50 [1]: 1.26 µM [rising, full curve, poor fit]

O=C(COc1ccccc1F)Nc1ccccc1C(=O)NC1CC1
AC50 [1]: 16.4 µM [rising, single point]

Cc1cccc2sc(NNC(=O)c3cc(=O)c4ccccc4o3)nc12
AC50 [1]: 4.47 µM [falling, partial curve, poor fit]

CCOC(=O)C1C(=O)CC(C)(O)C(C(=O)OCC)C1c1ccc(OCC)cc1 (stereo unspecified)
AC50 [1]: 0.00517 µM [rising, full curve, poor fit]

COc1ccccc1NC(=O)CSc1nnc(-c2ccncc2)o1
AC50 [1]: 9.2 µM [falling, single point]

CCOC(=O)N1CCN(c2ccc(C(=O)c3ccccc3)cc2F)CC1
AC50 [1]: 15.8 µM [falling, partial curve, poor fit]

O=C(Nc1cccnc1Cl)c1cc(-c2ccc(F)cc2)on1
AC50 [1]: 0.282 µM [falling, partial curve, poor fit]

Cc1nc(NCc2ccco2)c2oc3ccccc3c2n1
AC50 [1]: 0.82 µM [falling, full curve, poor fit]

COc1cc(/C=C2\SC(=Nc3ccccc3)NC2=O)cc(Cl)c1O
AC50 [1]: 5.62 µM [falling, partial curve, poor fit]

Cc1c(Cl)cccc1NC(=O)CC1Sc2ccccc2NC1=O (stereo unspecified)
AC50 [1]: 6.31 µM [falling, single point]

CCOC(=O)N1CCc2c(sc3ncn(C)c(=O)c23)C1
AC50 [1]: 2.24 µM [rising, full curve, poor fit]

COc1ccc(Nc2nnc(SCC(=O)c3cc4ccccc4o3)s2)cc1
AC50 [1]: 14.1 µM [rising, partial curve, poor fit]

CC(C(=O)O)n1c2ccccc2c2cn[nH]c(=O)c21 (stereo unspecified)
AC50 [1]: 3.55 µM [falling, full curve, poor fit]

Oc1cccc(C=NCc2ccccc2)c1
AC50 [1]: 29.1 µM [falling, single point]

CCOc1ccccc1NC(=O)CCN(c1ccc(C)cc1)S(=O)(=O)c1ccccc1
AC50 [1]: 2.06 µM [falling, partial curve, poor fit]

CSC1=N/C(=C/c2cccnc2)C(=O)N1Cc1ccccc1
AC50 [1]: 0.447 µM [falling, full curve, poor fit]

O=C(/C=C/c1ccco1)Nc1ccc2c(c1)OCCO2
AC50 [1]: 5.01 µM [falling, full curve] | AC50 (measured here: IkBa-CBG green luminescence): 11.2 µM [rising, partial curve, poor fit]

CN1CCN(C(=O)CCc2nc3ccccc3n2-c2ccccc2)CC1
AC50 [1]: 3.66 µM [rising, partial curve, poor fit]

CC(C)N(CCNCC(O)COc1ccc(C(C)(C)c2ccccc2)cc1)C(C)C (stereo unspecified)
AC50 [1]: 17.8 µM [falling, partial curve, poor fit]

CCN1CCN(c2nc3ccccc3nc2C(C#N)C(=O)OCc2ccccc2)CC1 (stereo unspecified)
AC50 [1]: 3.55 µM [rising, full curve, poor fit]

O=S1(=O)N=C(N/N=C/c2ccccn2)c2ccccc21
AC50 [1]: 9.2 µM [falling, partial curve]

CCC(C)[C@H](N)c1cn([C@@H](Cc2cc3ccccc3[nH]2)C(=O)N2CCNCC2)nn1 (stereo partly specified)
AC50 [1]: 5.62 µM [falling, single point]

CC(OC(=O)c1cc(=O)[nH]c2ccccc12)C(=O)N1C(C)CCCC1C (stereo unspecified)
AC50 [1]: 29.1 µM [rising, single point]
